Measurements: paper PMC3974651
These are yes or no findings as the source states them, for the method shown. For part of these data: Binding seen in cells or lysates may run through a third protein. Some entries that bind do so weakly or less than the wild type. Sequences can lack the tags named with a protein.

Assays:
[1] = target: T1, SQUAMOSA PROMOTER BINDING PROTEIN LIKE 9 (SPL9), yeast two-hybrid fusion (Arabidopsis thaliana) (UniProt Q700W2); assay: two-hybrid; Matchmaker GAL4 Two-Hybrid System, yeast strain AH109, growth on SD/-Leu/-Trp/-His with 15 mM 3-amino-1,2,4-triazole; three independent clones for each transformation
T1 sequence: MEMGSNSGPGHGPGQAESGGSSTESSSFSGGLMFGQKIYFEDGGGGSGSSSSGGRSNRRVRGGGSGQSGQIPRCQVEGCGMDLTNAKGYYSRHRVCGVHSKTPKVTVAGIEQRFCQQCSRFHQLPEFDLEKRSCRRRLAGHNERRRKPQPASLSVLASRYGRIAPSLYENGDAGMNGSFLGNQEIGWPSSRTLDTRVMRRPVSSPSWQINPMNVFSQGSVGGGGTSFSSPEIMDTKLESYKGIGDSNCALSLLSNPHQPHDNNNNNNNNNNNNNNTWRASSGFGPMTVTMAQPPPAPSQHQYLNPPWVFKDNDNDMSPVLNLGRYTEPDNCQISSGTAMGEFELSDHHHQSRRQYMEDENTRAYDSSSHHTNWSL

[2] = target: T2, SQUAMOSA PROMOTER BINDING PROTEIN LIKE 2 (SPL2), yeast two-hybrid fusion (Arabidopsis thaliana) (UniProt Q9S840); assay: as above
T2 sequence: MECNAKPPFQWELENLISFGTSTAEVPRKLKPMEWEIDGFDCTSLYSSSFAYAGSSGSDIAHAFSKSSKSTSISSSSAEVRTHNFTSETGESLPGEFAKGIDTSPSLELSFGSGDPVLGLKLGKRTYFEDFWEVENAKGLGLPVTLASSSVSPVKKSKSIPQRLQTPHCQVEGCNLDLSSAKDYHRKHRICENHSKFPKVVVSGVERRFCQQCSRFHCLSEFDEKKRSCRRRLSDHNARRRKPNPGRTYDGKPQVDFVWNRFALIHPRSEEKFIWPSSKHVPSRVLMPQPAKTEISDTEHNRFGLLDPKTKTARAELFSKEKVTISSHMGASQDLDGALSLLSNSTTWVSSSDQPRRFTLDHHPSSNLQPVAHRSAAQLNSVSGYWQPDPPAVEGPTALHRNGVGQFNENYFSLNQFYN

[3] = target: T3, SQUAMOSA PROMOTER BINDING PROTEIN LIKE 9 (SPL9), miRNA-resistant version, fused to the C-terminal half of luciferase (Arabidopsis thaliana) (UniProt Q700W2); assay: split reporter; split firefly luciferase complementation; LOMs-nLUC and cLUC-rSPL9 co-infiltrated by Agrobacterium into N. benthamiana leaves with 35S::P19-HA; 0.8 mM luciferin infiltrated after 3 days; cLUC and nLUC alone as controls
T3 sequence: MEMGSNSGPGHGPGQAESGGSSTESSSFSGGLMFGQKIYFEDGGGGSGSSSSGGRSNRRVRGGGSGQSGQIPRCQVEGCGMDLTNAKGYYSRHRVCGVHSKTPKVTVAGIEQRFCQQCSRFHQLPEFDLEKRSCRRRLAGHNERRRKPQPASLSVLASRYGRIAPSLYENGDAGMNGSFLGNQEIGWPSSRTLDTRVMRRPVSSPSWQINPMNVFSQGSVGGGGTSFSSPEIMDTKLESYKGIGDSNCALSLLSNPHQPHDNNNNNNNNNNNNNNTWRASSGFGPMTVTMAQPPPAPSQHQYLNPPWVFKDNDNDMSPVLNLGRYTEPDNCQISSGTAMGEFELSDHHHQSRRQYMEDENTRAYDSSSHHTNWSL

B1: LOST … 3 (LOM3), yeast two-hybrid fusion (protein, UniProt O81316 1-558)
chain: MPLPFEEFQGKGISCFSSFSSSFPQPPSSPLLSHRKARGGEEEEEEVPAAEPTSVLDSLISPTSSSTVSSSHGGNSAVGGGGDATTDEQCGAIGLGDWEEQVPHDHEQSILGLIMGDSTDPSLELNSILQTSPTFHDSDYSSPGFGVVDTGFGLDHHSVPPSHVSGLLINQSQTHYTQNPAAIFYGHHHHTPPPAKRLNPGPVGITEQLVKAAEVIESDTCLAQGILARLNQQLSSPVGKPLERAAFYFKEALNNLLHNVSQTLNPYSLIFKIAAYKSFSEISPVLQFANFTSNQALLESFHGFHRLHIIDFDIGYGGQWASLMQELVLRDNAAPLSLKITVFASPANHDQLELGFTQDNLKHFASEINISLDIQVLSLDLLGSISWPNSSEKEAVAVNISAASFSHLPLVLRFVKHLSPTIIVCSDRGCERTDLPFSQQLAHSLHSHTALFESLDAVNANLDAMQKIERFLIQPEIEKLVLDRSRPIERPMMTWQAMFLQMGFSPVTHSNFTESQAECLVQRTPVRGFHVEKKHNSLLLCWQRTELVGVSAWRCRSS
binding [1]: binds
binding [2]: binds

B2: LOST … 3 (LOM3), miRNA-resistant version, fused to the N-terminal half of luciferase (protein, UniProt O81316 1-558)
chain: MPLPFEEFQGKGISCFSSFSSSFPQPPSSPLLSHRKARGGEEEEEEVPAAEPTSVLDSLISPTSSSTVSSSHGGNSAVGGGGDATTDEQCGAIGLGDWEEQVPHDHEQSILGLIMGDSTDPSLELNSILQTSPTFHDSDYSSPGFGVVDTGFGLDHHSVPPSHVSGLLINQSQTHYTQNPAAIFYGHHHHTPPPAKRLNPGPVGITEQLVKAAEVIESDTCLAQGILARLNQQLSSPVGKPLERAAFYFKEALNNLLHNVSQTLNPYSLIFKIAAYKSFSEISPVLQFANFTSNQALLESFHGFHRLHIIDFDIGYGGQWASLMQELVLRDNAAPLSLKITVFASPANHDQLELGFTQDNLKHFASEINISLDIQVLSLDLLGSISWPNSSEKEAVAVNISAASFSHLPLVLRFVKHLSPTIIVCSDRGCERTDLPFSQQLAHSLHSHTALFESLDAVNANLDAMQKIERFLIQPEIEKLVLDRSRPIERPMMTWQAMFLQMGFSPVTHSNFTESQAECLVQRTPVRGFHVEKKHNSLLLCWQRTELVGVSAWRCRSS
binding [3]: binds
